Measurements taken from PMC12847462.
These are yes or no findings as the source states them, for the method shown. In cells and extracts the contact can be indirect. Some binding calls cover weakened binding; strength is not graded here.

Sequences of proteins named here, by UniProt entry; tags and fusion partners are left off. Residues count along the entry.
UniProt P42858: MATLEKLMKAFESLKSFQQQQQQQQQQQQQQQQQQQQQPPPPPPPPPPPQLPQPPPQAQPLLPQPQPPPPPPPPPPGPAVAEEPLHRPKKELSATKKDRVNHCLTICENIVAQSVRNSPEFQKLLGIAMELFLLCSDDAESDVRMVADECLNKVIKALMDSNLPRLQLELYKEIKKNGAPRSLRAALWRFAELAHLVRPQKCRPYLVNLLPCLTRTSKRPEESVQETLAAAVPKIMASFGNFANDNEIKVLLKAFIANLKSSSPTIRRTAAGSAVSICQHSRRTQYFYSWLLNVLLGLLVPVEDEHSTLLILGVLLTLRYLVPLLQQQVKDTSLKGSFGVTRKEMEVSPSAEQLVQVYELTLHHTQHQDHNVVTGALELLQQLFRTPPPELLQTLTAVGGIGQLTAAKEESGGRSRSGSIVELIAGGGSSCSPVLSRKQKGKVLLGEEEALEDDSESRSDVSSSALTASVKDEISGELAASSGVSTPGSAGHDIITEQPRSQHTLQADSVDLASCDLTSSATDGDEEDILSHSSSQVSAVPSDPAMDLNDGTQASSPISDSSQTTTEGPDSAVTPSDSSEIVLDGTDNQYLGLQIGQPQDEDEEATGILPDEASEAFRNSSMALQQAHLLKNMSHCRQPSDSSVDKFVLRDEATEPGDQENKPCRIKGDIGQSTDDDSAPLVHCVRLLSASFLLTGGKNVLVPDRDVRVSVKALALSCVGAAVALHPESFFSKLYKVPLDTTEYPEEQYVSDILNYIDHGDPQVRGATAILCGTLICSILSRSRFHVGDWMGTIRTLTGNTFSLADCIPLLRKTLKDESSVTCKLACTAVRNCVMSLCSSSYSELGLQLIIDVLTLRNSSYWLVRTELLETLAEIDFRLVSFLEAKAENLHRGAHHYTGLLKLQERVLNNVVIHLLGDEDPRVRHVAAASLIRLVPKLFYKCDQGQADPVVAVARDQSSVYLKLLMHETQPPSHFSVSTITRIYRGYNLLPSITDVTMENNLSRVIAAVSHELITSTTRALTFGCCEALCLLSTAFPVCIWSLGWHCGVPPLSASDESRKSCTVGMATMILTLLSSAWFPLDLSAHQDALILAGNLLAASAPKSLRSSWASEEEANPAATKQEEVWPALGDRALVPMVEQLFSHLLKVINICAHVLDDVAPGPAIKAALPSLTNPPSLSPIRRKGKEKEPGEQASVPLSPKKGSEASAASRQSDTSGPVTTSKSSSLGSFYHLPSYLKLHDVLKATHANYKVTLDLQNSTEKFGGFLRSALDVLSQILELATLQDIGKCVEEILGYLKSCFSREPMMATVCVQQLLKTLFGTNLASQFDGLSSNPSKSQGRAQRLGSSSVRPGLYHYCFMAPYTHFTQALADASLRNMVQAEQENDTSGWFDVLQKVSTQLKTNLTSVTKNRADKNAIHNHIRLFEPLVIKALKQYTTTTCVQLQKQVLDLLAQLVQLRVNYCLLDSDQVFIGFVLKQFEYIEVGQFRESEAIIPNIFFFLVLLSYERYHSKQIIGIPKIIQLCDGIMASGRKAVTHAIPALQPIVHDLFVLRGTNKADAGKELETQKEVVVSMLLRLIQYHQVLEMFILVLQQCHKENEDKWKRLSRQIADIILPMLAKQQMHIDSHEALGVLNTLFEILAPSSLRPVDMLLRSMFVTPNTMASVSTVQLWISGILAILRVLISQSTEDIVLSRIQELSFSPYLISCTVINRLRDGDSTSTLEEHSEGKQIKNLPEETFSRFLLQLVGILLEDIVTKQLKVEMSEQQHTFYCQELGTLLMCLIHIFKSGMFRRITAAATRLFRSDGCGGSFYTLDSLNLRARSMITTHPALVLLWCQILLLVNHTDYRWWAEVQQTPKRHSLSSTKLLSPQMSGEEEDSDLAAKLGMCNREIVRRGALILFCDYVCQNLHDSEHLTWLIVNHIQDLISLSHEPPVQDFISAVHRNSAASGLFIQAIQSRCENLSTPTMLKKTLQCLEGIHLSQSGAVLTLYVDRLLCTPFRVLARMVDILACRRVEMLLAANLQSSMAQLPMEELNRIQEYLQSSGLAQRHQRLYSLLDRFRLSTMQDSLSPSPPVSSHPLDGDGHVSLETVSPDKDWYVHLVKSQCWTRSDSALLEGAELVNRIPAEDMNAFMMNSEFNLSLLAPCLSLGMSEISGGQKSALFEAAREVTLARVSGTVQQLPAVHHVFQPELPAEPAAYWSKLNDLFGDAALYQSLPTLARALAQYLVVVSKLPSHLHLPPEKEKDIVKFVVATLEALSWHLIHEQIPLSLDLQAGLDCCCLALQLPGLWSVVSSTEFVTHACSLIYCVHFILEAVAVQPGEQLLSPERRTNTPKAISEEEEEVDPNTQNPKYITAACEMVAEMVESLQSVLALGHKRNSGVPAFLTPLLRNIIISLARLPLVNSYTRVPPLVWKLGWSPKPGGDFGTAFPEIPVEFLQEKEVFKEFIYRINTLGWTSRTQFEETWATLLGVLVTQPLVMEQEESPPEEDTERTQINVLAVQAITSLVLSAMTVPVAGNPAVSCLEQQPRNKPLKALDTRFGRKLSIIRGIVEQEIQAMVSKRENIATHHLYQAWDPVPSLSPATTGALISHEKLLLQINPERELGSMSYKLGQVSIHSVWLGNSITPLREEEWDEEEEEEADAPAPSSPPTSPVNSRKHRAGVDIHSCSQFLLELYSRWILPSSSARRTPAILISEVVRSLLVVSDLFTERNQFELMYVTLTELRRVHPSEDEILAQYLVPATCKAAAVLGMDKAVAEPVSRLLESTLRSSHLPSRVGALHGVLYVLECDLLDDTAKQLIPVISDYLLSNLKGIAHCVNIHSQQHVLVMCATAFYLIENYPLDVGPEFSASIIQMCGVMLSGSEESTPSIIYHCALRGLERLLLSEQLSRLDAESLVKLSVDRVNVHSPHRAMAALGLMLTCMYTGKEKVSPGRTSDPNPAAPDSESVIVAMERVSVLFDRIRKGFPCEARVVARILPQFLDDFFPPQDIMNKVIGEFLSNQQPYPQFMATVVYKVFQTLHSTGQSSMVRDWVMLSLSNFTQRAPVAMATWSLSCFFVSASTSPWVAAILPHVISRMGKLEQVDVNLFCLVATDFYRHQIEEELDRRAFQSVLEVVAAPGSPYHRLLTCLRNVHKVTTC
UniProt P02649, residues 19-317: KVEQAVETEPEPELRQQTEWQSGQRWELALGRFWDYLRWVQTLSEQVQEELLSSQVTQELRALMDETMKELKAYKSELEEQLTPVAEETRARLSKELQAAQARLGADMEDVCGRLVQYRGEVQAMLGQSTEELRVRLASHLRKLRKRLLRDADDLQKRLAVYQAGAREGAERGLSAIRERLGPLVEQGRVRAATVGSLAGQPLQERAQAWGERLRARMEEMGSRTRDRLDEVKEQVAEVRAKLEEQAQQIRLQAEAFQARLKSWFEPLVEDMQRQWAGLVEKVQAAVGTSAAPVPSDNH

Target: Huntingtin protein (HTT), endogenous full length (human (endogenous in HEK293)) (UniProt P42858)
Assay: co-IP; 1 uL anti-HTT 5526 antibody with 500 ug HEK293 lysate for 1 h, Dynabeads M-280 anti-rabbit, 4°C 1 h; blot probed with anti-GFP antibodies

binding: binds
Substance: APOE3 tagged with mCherry-SepHluorin (from UniProt P02649 19-317)
